# Data from the supplement of paper PMC8728848.
# The list shows a part of the results.
# Assays:
# Assay in all cases: glycan array binding signal (z-score within array); higher = stronger binding
# Details in all cases: glycan notation: IUPAC condensed, linker removed
# [1] = molecular target: GlcNAc(a1-4)Gal(b1-4)GlcNAc(b1-3)Gal(b1-4)Glc
# Procedure, shortened: (§1)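 Negative Z-scores can be read as non-binding. The Z-score is calculated within each array and then averaged across arrays of one protein sequence at different concentrations or buffers and across linkers. Arrays, 3228 in all, were curated from the Consortium for Functional Glycomics database and kept only where the protein sequence was available.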
# [2] = molecular target: GlcNAc(a1-4)Gal(b1-4)GlcNAc(b1-3)Gal(b1-4)GlcNAc
# Procedure, shortened: as §1
# [3] = molecular target: GlcNAc(a1-4)Gal(b1-4)GlcNAc(b1-3)Gal(b1-4)GlcNAc(b1-3)Gal(b1-4)GlcNAc
# Procedure, shortened: as §1
# [4] = molecular target: GlcNAc(a1-4)Gal(b1-4)GlcNAc(b1-3)Gal(b1-4)[Fuc(a1-3)]GlcNAc(b1-3)Gal(b1-4)[Fuc(a1-3)]GlcNAc
# Procedure, shortened: as §1
# [5] = molecular target: GlcNAc(a1-6)Gal(b1-4)GlcNAc
# Procedure, shortened: as §1
# [6] = molecular target: GlcNAc(b1-2)Gal(b1-3)GalNAc
# Procedure, shortened: as §1
# [7] = molecular target: GlcNAc(b1-2)Man(a1-3)[GlcNAc(b1-2)Man(a1-6)]Man(b1-4)GlcNAc(b1-4)GlcNAc
# Procedure, shortened: as §1
# [8] = molecular target: GlcNAc(b1-2)Man(a1-3)[GlcNAc(b1-2)Man(a1-6)]Man(b1-4)GlcNAc(b1-4)[Fuc(a1-6)]GlcNAc
# Procedure, shortened: as §1
# [9] = molecular target: GlcNAc(b1-2)Man(a1-3)[GlcNAc(b1-4)][GlcNAc(b1-2)Man(a1-6)]Man(b1-4)GlcNAc(b1-4)GlcNAc
# Procedure, shortened: as §1
# [10] = molecular target: GlcNAc(b1-2)[GlcNAc(b1-4)]Man(a1-3)[GlcNAc(b1-2)Man(a1-6)]Man(b1-4)GlcNAc(b1-4)GlcNAc
# Procedure, shortened: as §1
# [11] = molecular target: GlcNAc(b1-2)[GlcNAc(b1-4)]Man(a1-3)[GlcNAc(b1-4)][GlcNAc(b1-2)Man(a1-6)]Man(b1-4)GlcNAc(b1-4)GlcNAc
# Procedure, shortened: as §1
# [12] = molecular target: GlcNAc(b1-2)[GlcNAc(b1-4)]Man(a1-3)[GlcNAc(b1-4)][GlcNAc(b1-2)[GlcNAc(b1-6)]Man(a1-6)]Man(b1-4)GlcNAc(b1-4)GlcNAc
# Procedure, shortened: as §1
# [13] = molecular target: GlcNAc(b1-2)[GlcNAc(b1-6)]Man(a1-6)[GlcNAc(b1-2)Man(a1-3)]Man(b1-4)GlcNAc(b1-4)GlcNAc
# Procedure, shortened: as §1
# [14] = molecular target: GlcNAc(b1-2)[GlcNAc(b1-6)]Man(a1-6)[GlcNAc(b1-2)Man(a1-3)][GlcNAc(b1-4)]Man(b1-4)GlcNAc(b1-4)GlcNAc
# Procedure, shortened: as §1
# GlcNAc(b1-3)Gal = molecular target: GlcNAc(b1-3)Gal
# Procedure, shortened: as §1
# [15] = molecular target: GlcNAc(b1-3)Gal(b1-3)GalNAc
# Procedure, shortened: as §1
# GlcNAc(b1-3)Gal(b1-4)Glc = molecular target: GlcNAc(b1-3)Gal(b1-4)Glc
# Procedure, shortened: as §1
# [16] = molecular target: GlcNAc(b1-3)Gal(b1-4)GlcNAc
# Procedure, shortened: as §1
# [17] = molecular target: GlcNAc(b1-3)Gal(b1-4)GlcNAc(b1-3)Gal(b1-4)GlcNAc
# Procedure, shortened: as §1
# GlcNAc(b1-3)GalNAc = molecular target: GlcNAc(b1-3)GalNAc
# Procedure, shortened: as §1
# GlcNAc(b1-3)Man = molecular target: GlcNAc(b1-3)Man
# Procedure, shortened: as §1
# [18] = molecular target: GlcNAc(b1-3)[GlcNAc(b1-4)][GlcNAc(b1-6)]GlcNAc
# Procedure, shortened: as §1
# [19] = molecular target: GlcNAc(b1-3)[GlcNAc(b1-6)]Gal(b1-4)GlcNAc
# Procedure, shortened: as §1
# [20] = molecular target: GlcNAc(b1-3)[GlcNAc(b1-6)]GalNAc
# Procedure, shortened: as §1
# [21] = molecular target: GlcNAc(b1-4)Gal(b1-4)GlcNAc
# Procedure, shortened: as §1
# GlcNAc(b1-4)GlcNAc = molecular target: GlcNAc(b1-4)GlcNAc
# Procedure, shortened: as §1
# [22] = molecular target: GlcNAc(b1-4)GlcNAc(b1-4)GlcNAc
# Procedure, shortened: as §1
# [23] = molecular target: GlcNAc(b1-4)GlcNAc(b1-4)GlcNAc(b1-4)GlcNAc(b1-4)GlcNAc
# Procedure, shortened: as §1
# [24] = molecular target: GlcNAc(b1-4)GlcNAc(b1-4)GlcNAc(b1-4)GlcNAc(b1-4)GlcNAc(b1-4)GlcNAc
# Procedure, shortened: as §1
# [25] = molecular target: GlcNAc(b1-4)[GlcNAc(b1-6)]GalNAc
# Procedure, shortened: as §1
# [26] = molecular target: GlcNAc(b1-6)Gal(b1-4)GlcNAc
# Procedure, shortened: as §1
# GlcNAc(b1-6)GalNAc = molecular target: GlcNAc(b1-6)GalNAc
# Procedure, shortened: as §1
# GlcNAc3Prop(b1-4)GlcNAc = molecular target: GlcNAc3Prop(b1-4)GlcNAc
# Procedure, shortened: as §1
# [27] = molecular target: GlcNAc6S(b1-3)Gal(b1-4)GlcNAc
# Procedure, shortened: as §1
# Kdn(a2-3)Gal(b1-3)GalNAc = molecular target: Kdn(a2-3)Gal(b1-3)GalNAc
# Procedure, shortened: as §1
# Kdn(a2-3)Gal(b1-3)GlcNAc = molecular target: Kdn(a2-3)Gal(b1-3)GlcNAc
# Procedure, shortened: as §1
# Kdn(a2-3)Gal(b1-4)Glc = molecular target: Kdn(a2-3)Gal(b1-4)Glc
# Procedure, shortened: as §1
# Kdn(a2-3)Gal(b1-4)GlcNAc = molecular target: Kdn(a2-3)Gal(b1-4)GlcNAc
# Procedure, shortened: as §1
# [28] = molecular target: Kdn(a2-3)Gal(b1-4)[Fuc(a1-3)]GlcNAc
# Procedure, shortened: as §1
# Kdn(a2-6)Gal(b1-4)GlcNAc = molecular target: Kdn(a2-6)Gal(b1-4)GlcNAc
# Procedure, shortened: as §1
# [29] = molecular target: Man(a1-2)Man(a1-2)Man(a1-3)Man
# Procedure, shortened: as §1
# [30] = molecular target: Man(a1-2)Man(a1-2)Man(a1-6)[Man(a1-3)]Man
# Procedure, shortened: as §1
# Man(a1-2)Man(a1-3)Man = molecular target: Man(a1-2)Man(a1-3)Man
# Procedure, shortened: as §1
# [31] = molecular target: Man(a1-2)Man(a1-3)[Man(a1-2)Man(a1-6)]Man
# Procedure, shortened: as §1
# [32] = molecular target: Man(a1-2)Man(a1-3)[Man(a1-2)Man(a1-6)]Man(a1-6)[Man(a1-2)Man(a1-2)Man(a1-3)]Man
# Procedure, shortened: as §1
binder,measurement,setting,value
"rPitB (Streptococcus pneumoniae), A0A0I7U739 (protein) MSEIEIINAKKIYHDVPVIENLNITIPKGSLFTLLGASGCGKTTLLRMIAGFNSIKDGEFYFDDTKINNMEPSKRNIGLVFQNYAIFPHLTVRDNVAFGLMQKKVPKEELIQQTNKYLELMQIAQYAD",glycan array binding signal (z-score),[1],0.462
same,glycan array binding signal (z-score),[2],0.021
same,glycan array binding signal (z-score),[3],-0.388
same,glycan array binding signal (z-score),[4],3.89
same,glycan array binding signal (z-score),[5],0.531
same,glycan array binding signal (z-score),[6],-0.153
same,glycan array binding signal (z-score),[7],0.13
same,glycan array binding signal (z-score),[8],0.78
same,glycan array binding signal (z-score),[9],-0.914
same,glycan array binding signal (z-score),[10],0.237
same,glycan array binding signal (z-score),[11],-1.01
same,glycan array binding signal (z-score),[12],-0.276
same,glycan array binding signal (z-score),[13],-0.33
same,glycan array binding signal (z-score),[14],0.281
same,glycan array binding signal (z-score),GlcNAc(b1-3)Gal,-0.16
same,glycan array binding signal (z-score),[15],0.425
same,glycan array binding signal (z-score),GlcNAc(b1-3)Gal(b1-4)Glc,-0.53
same,glycan array binding signal (z-score),[16],-0.457
same,glycan array binding signal (z-score),[17],-0.838
same,glycan array binding signal (z-score),GlcNAc(b1-3)GalNAc,-0.397
same,glycan array binding signal (z-score),GlcNAc(b1-3)Man,-0.246
same,glycan array binding signal (z-score),[18],0.058
same,glycan array binding signal (z-score),[19],0.187
same,glycan array binding signal (z-score),[20],0.67
same,glycan array binding signal (z-score),[21],1.14
same,glycan array binding signal (z-score),GlcNAc(b1-4)GlcNAc,0.156
same,glycan array binding signal (z-score),[22],-0.783
same,glycan array binding signal (z-score),[23],-0.632
same,glycan array binding signal (z-score),[24],0.263
same,glycan array binding signal (z-score),[25],0.05
same,glycan array binding signal (z-score),[26],-0.039
same,glycan array binding signal (z-score),GlcNAc(b1-6)GalNAc,-0.376
same,glycan array binding signal (z-score),GlcNAc3Prop(b1-4)GlcNAc,-0.316
same,glycan array binding signal (z-score),[27],1.15
same,glycan array binding signal (z-score),Kdn(a2-3)Gal(b1-3)GalNAc,-0.455
same,glycan array binding signal (z-score),Kdn(a2-3)Gal(b1-3)GlcNAc,0.362
same,glycan array binding signal (z-score),Kdn(a2-3)Gal(b1-4)Glc,-0.94
same,glycan array binding signal (z-score),Kdn(a2-3)Gal(b1-4)GlcNAc,0.167
same,glycan array binding signal (z-score),[28],-0.562
same,glycan array binding signal (z-score),Kdn(a2-6)Gal(b1-4)GlcNAc,-0.512
same,glycan array binding signal (z-score),[29],0.159
same,glycan array binding signal (z-score),[30],-0.585
same,glycan array binding signal (z-score),Man(a1-2)Man(a1-3)Man,0.348
same,glycan array binding signal (z-score),[31],-0.507
same,glycan array binding signal (z-score),[32],0.18

# 2 records drawn at random from the list so far:
binder,measurement,setting,value
"rPitB (Streptococcus pneumoniae), A0A0I7U739 (protein) MSEIEIINAKKIYHDVPVIENLNITIPKGSLFTLLGASGCGKTTLLRMIAGFNSIKDGEFYFDDTKINNMEPSKRNIGLVFQNYAIFPHLTVRDNVAFGLMQKKVPKEELIQQTNKYLELMQIAQYAD",glycan array binding signal (z-score),GlcNAc(b1-3)Gal,-0.16
same,glycan array binding signal (z-score),[13],-0.33
